Data published in PubChem BioAssay AID1508600 (Functional Genomics Laboratory (NCATS/FGL), 2020).
The campaign covered roughly 53,000 sequences. About 3,700 (7%) were called active.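 The calls were made as follows: active = gene knockdowns whose robust z-score for IL-1 alpha signal is at least 2 or at most -2, so actives lie on both sides; inactive = the rest.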 The list shows a part of the results.

Test: Components of the Cytosolic LPS Sensing Pathway: Gene Identification via Genome-wide siRNA Screen;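 also: robust z of the log signal after scaling to non-targeting control siRNA wells of the plate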
Settings: RAW264.7 macrophages, IL-1a HTRF, actives lie on both sides, screened at 100 nM (by protocol), cells primed 5 h with Pam3CSK4 first
In short: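 Read-out: IL-1a HTRF on supernatant, divided by plate negative-control median ×100, log-transformed and converted to robust z-score. Cells were RAW264.7 given 100 nM siRNA, Pam3CSK4-primed 5 hours, then LipidA-transfected 24 hour.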
In the case of GCAAGGCGGAGAGUAAAAGTT against Lypd11, the z-score is reported as inactive: -1.51.
In the case of CGAGAUUUUUCAUGAUGUGTT against Slc4a8, the z-score is reported as inactive: -0.0121.
With CCAAACUAGGAGACAUAAUTT against Dhx38 the z-score was inactive: -0.238.
In the case of GCACCCUCUUUCAAGAAACTT against Olfr331, the z-score is reported as inactive: -0.777.
In the case of CCUUUUGAAACGUACAGCGTT against Gpr182, the z-score is reported as inactive: 1.12.
In the case of GGUGGUGGUGUUCCUCAAGTT against Glrx5, the z-score is reported as inactive: -0.883.
In the case of GGGUGAUCCCUGAAUAUUGTT against Arcn1, the z-score is reported as inactive: -0.863.
In the case of GGACAAGGCAAAGGCCUAUTT against Phka1, the z-score is reported as inactive: 1.94.
For GGUCAUCUUCCGAUACUGUTT against Pspn, the z-score was inactive: 0.936.
In the case of GCUAUCCUCAAUUGCACACTT against Atxn3, the z-score is reported as inactive: 1.49.
With AUGAUUCCCUACCAGAUCGTT against Pfdn4 the z-score was inactive: 1.36.
With UCACUGUACCAUUCAUAUGTT against Olfr50 the z-score was inactive: 1.17.
With CGUAUUUGUGGCAUAUUAGTT against Olfr1183 the z-score was inactive: -0.128.
In the case of GGAUAUCCUUCUGUCCAGUTT against Tyr, the z-score is reported as inactive: -0.977.
With GGUUGGGAUACAUUCAACGTT against Slc25a37 the z-score was inactive: -0.297.
In the case of GGAUCUAUGGGUAUCCUGCTT against Adam1a, the z-score is reported as inactive: -1.8.
For GGAAAUUGCUCAAAAAAGGTT against Asb3, the z-score was inactive: 0.725.
For GCAAGAUUCAUUGUCACUGTT against Ezr, the z-score was inactive: -0.432.
In the case of “GGUGUAGGCUCCCUGACAUTT against C130046B21Rik”, the z-score is reported as inactive: 0.0693.
For GGUACUCCCGAUCUGCUAUTT against Rpl6, the z-score was inactive: 1.15.
In the case of GGGAAACUUCUUCAUGGGUTT against Dazap2, the z-score is reported as inactive: 0.0384.
With GCAUAUGAACCUAAAACCCTT against Spred3 the z-score was inactive: -1.75.
For GGUGACUUUUUGGUACAGATT against Mthfr, the z-score was inactive: 0.558.
With GGAAGGAGAACAUUCCUUUTT against Ces1d the z-score was inactive: -0.198.
For GGUGCAAGGUUCUUGUGUUTT against Mcmdc2, the z-score was inactive: -1.48.
With CGAACCCUGAAAGAACAUATT against Slc5a12 the z-score was inactive: -0.971.
For GCACUCAGCUAGGUGAAGATT against Hnrnpul1, the z-score was inactive: -0.186.
For GCUAUAAGCUCAGGUUUGUTT against Osbpl10, the z-score was inactive: 0.115.
For GGAGAUAUCCUUUUGCUCUTT against Tbc1d1, the z-score was inactive: -0.419.
In the case of GGUGUAACUGGGCUGCAUGTT against Avpi1, the z-score is reported as inactive: 0.269.
For GUUCGCUGAACACGUCUUCTT against Hpcal1, the z-score was inactive: 0.549.
With GCUUGAGUAGUGCAGAAACTT against Jmjd1c the z-score was inactive: -1.15.
For CGAAAAGAUAAGCCCUUAATT against Mphosph10, the z-score was inactive: 0.776.
With CCUUGCUCAAUGUUUUGGATT against Obscn the z-score was inactive: 1.73.
With GCAUCAAGUCUGAGCGACUTT against Mef2b the z-score was inactive: -0.347.
In the case of GGAUCUCUACUUCUAUAAGTT against Kif27, the z-score is reported as inactive: -0.0725.
For GGAUGUGUUAUCGGUGCUCTT against Mup21, the z-score was inactive: -0.303.
In the case of CCAAGUUUGUUUCAGACGGTT against Btbd6, the z-score is reported as inactive: -0.366.
In the case of GCAAGUCGUGAAACUAUAATT against Yeats4, the z-score is reported as inactive: 0.278.
With GGCCUUUCAAGAAGCCAAATT against Tprn the z-score was inactive: -0.0144.
With GGCUCUAGGUACUUGUGGUTT against Olfr617 the z-score was inactive: -0.626.
In the case of GCUGCCCUUCGAUUUCUGUTT against Olfr550, the z-score is reported as inactive: 0.123.
In the case of GGCCGAUCCUCUUUUAAAUTT against Tafa4, the z-score is reported as inactive: -1.61.
With GGAGAUACCCAAUCUCAGATT against Tcaf3 the z-score was inactive: -0.438.
In the case of CAAAUUAUGAGUGAGAACCTT against Olfr340, the z-score is reported as inactive: -0.974.
With CGUGCUCAUUUAGGUUAUATT against Zfp57 the z-score was inactive: 1.15.
For GGUCAUCCUUUUUCAGUACTT against Lhx6, the z-score was active: 2.28.
For GGCUGUUUUGUGAACCUAATT against Olfr481, the z-score was inactive: -0.353.
With GGAUGUGCAAGAGAAAUUCTT against Tmem175 the z-score was inactive: 0.334.
With GGUACUUGAGUUGGCAGGATT against H2az1 the z-score was inactive: -1.16.
In the case of GGCUUUACCGGAUCUUUUGTT against Krtap15, the z-score is reported as inactive: -1.06.
For GGACUUGGAGAGCAAAAGCTT against Ano2, the z-score was active: -2.14.
For GCAGAUUCCUAUUAAAUGGTT against Fer, the z-score was inactive: -0.587.
In the case of GGAUGAAGCGAAUCACAACTT against Atp1b4, the z-score is reported as inactive: -1.46.
For GGAGGAAACACGUCUGAAUTT against Slc4a9, the z-score was inactive: -0.425.
For GGCAGCUAGAGAGAAUCCUTT against Akr1c12, the z-score was active: -2.45.
With GGAGACAUCCAUUGAGCUUTT against Kirrel the z-score was inactive: 0.374.
In the case of CCAUGACAAUGAAUAUCCUTT against Ms4a19, the z-score is reported as inactive: -1.24.
With GGGAACACUGUUGUUCUUGTT against Sprr3 the z-score was inactive: 0.54.
In the case of GGGCUUAACACUUUAAAUCTT against Reep3, the z-score is reported as inactive: 0.454.
For GGUUAACCUGAGAAAAAUGTT against Mkrn1, the z-score was inactive: 0.734.
With GGAAGAAAUGUCAUCACAATT against Heph the z-score was inactive: 0.193.
In the case of GGUCUAGCUCUGAAACAUCTT against Pms2, the z-score is reported as active: 2.27.
For GUGAUUGAUAUUGUUCGAGTT against Pip, the z-score was inactive: 0.00578.
With GGACACUAUAAGAAAGGAATT against Fnta the z-score was inactive: 0.708.
For GGUAUUUGAUGCUCGGGACTT against Nos3, the z-score was inactive: -0.979.
In the case of CCAUUUUCGGCAAUGCGCUTT against Adra2b, the z-score is reported as inactive: -1.13.
In the case of GGCUUUUCGUUCUCUGUCATT against Zfp729a, the z-score is reported as inactive: -1.78.
